Test results as given in patent US20180370912A1, “COMPOUNDS AND METHODS FOR TREATING DISEASES MEDIATED BY PROTEIN DISULFIDE ISOMERASE” (Beth Israel Deaconess Medical Center, Inc., priority 2017, published 2018).
At least one compound was matched to its structure with a doubt left.

Amino acid sequences for entries named in this document (tags omitted). Residues count along the entry.
UniProt P07237, 18-508: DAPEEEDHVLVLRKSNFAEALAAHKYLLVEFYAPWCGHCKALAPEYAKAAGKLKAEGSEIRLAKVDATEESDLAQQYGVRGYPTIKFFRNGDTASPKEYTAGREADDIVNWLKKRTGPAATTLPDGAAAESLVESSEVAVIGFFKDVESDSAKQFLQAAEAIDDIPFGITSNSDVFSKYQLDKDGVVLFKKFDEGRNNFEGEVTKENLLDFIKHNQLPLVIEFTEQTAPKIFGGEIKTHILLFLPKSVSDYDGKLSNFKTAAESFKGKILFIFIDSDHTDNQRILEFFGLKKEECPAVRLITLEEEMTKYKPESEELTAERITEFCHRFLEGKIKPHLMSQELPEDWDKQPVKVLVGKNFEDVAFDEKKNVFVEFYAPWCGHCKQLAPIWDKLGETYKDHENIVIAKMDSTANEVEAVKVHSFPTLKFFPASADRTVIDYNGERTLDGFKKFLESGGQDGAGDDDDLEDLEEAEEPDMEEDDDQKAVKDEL

What was measured:
Experiment in all cases: Di-eosin-GSSG disulfide reductase assay
Assay type in all cases: biochemical
PDI = target: T1, PDI (Homo sapiens, UniProt P07237)
T1 construct: FLAG; made in house; host or cells: Escherichia coli Origami B (DE3), pET-15b
Experimental: (§1) The probe di-eosin glutathione disulfide, di-eosin-GSSG, was prepared as previously described in Raturi, A., Vacratsis, P. O., Seslija, D., Lee, L. & Mutus, B., Biochem J 391, 351-357 (2005). Reductase activity of purified thiol isomerases and PDI domains was monitored in a 96-well fluorescence plate format. PDI, AGHA-PDI, ERpS, ERp57, ERp72 and PDI domains were assayed at 50 nM in the presence or absence of the indicated small molecules, peptides or cathepsin G. The assay included 100 mM potassium phosphate (pH 7.4) containing 2 mM EDTA, 5 μM DTT and 150 nM of the di-eosin GSSG probe. The increase in fluorescence was determined for 20 minutes by excitation at 520 nm and emission at 550 nm in a Synergy Biotek 4. The reduction of 150 nM di-eosin-GSSG by 5 μM DTT in the presence or absence of mentioned small molecules, peptides or proteins served as a negative control.
Michaelis Menten analysis was assayed using PDI at 20 nM and small molecules, peptides or cathepsin G at concentrations causing maximal augmentation under similar buffer conditions as described above. 8-point response curves were generated using a range of different di-eosin-GSSG concentrations (50-5000 nM). Enzyme kinetics analysis was performed using Graphpad Prism 5.0.

ERp72 = target: T2, ERp72 (Homo sapiens, UniProt P13667)
T2 construct: recombinant His-tagged full-length ERp5, ERp72 and PDI domain fragments; His; made in house; host or cells: Escherichia coli Origami B (DE3), pET-15b
T2 sequence (P13667 21-645): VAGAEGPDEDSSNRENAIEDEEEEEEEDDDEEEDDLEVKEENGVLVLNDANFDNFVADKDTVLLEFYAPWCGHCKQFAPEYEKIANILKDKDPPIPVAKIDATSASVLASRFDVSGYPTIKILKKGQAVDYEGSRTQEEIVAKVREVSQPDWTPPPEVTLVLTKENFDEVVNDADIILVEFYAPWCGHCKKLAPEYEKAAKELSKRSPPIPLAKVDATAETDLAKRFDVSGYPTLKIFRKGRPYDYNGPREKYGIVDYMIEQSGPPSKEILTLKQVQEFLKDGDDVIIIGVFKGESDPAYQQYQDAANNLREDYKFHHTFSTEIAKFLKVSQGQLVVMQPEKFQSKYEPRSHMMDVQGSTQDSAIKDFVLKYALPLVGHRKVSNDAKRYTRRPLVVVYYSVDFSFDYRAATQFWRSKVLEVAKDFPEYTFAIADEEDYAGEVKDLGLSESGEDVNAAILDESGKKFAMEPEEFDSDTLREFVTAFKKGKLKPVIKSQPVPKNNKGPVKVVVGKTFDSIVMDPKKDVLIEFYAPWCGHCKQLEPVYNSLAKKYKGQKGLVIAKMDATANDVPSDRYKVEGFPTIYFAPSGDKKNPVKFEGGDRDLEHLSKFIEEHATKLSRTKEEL
Experimental: as §1

ERp5 = target: T3, ERp5 (Homo sapiens, UniProt Q15084)
T3 construct: recombinant His-tagged full-length ERp5, ERp72 and PDI domain fragments; His; made in house; host or cells: Escherichia coli Origami B (DE3), pET-15b
T3 sequence (Q15084 20-440): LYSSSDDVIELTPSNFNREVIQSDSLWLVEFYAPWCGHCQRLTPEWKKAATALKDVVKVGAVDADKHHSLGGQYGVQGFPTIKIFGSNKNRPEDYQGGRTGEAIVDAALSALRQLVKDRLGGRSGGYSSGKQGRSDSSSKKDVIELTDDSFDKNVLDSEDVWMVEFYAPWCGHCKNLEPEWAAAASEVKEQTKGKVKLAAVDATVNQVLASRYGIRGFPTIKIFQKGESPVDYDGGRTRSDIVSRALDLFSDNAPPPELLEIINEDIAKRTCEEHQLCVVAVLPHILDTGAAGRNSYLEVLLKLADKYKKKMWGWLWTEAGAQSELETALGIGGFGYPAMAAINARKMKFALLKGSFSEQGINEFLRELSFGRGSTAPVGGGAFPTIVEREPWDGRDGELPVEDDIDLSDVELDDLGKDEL
Experimental: as §1

ERp57 = target: T4, ERp57 (Homo sapiens, UniProt P30101)
T4 construct: FLAG; made in house; host or cells: Escherichia coli Origami B (DE3), pET-15b
T4 sequence (P30101 25-505): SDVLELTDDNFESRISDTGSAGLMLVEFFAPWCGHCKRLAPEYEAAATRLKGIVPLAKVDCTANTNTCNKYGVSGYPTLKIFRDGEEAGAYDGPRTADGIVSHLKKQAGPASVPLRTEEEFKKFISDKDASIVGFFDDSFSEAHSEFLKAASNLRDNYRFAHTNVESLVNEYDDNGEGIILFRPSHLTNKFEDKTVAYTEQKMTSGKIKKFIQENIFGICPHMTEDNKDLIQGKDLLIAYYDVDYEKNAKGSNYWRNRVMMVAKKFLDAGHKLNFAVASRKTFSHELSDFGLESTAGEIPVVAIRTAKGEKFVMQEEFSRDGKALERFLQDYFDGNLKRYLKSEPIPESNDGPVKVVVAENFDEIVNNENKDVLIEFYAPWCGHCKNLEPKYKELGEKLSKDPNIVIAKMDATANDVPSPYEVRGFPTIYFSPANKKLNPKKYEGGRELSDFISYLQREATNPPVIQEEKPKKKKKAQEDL
Experimental: as §1

C[C@H](N)C(=O)NCC(=O)N[C@H]1CSSC[C@@H](C(=O)O)NC(=O)[C@H](CO)NC(=O)[C@H]([C@@H](C)O)NC(=O)[C@H](Cc2ccccc2)NC(=O)[C@H]([C@@H](C)O)NC(=O)[C@H](CCCCN)NC(=O)[C@H](Cc2c[nH]c3ccccc23)NC(=O)[C@H](Cc2ccccc2)NC(=O)[C@H](Cc2ccccc2)NC(=O)[C@H](CC(N)=O)NC(=O)[C@H](CCCCN)NC1=O [somatostatin]
cleavage of di-eosin-GSSG probe by PDI (reductase activity at catalytic cysteines) (PDI): stimulates cleavage of di-eosin-GSSG
change of apparent kcat in the di-eosin-GSSG assay of PDI reductase activity (PDI; FIG. 6d): None of them altered the apparent kcat
cleavage of di-eosin-GSSG by ERp72 (catalytic activity) (ERp72): augmented the catalytic activity of ERp72
cleavage of di-eosin-GSSG by ERp5 (catalytic activity) (ERp5): inhibited the catalytic activity of ERp5 and ERp57 to varying degrees
cleavage of di-eosin-GSSG by ERp57 (catalytic activity) (ERp57): inhibited the catalytic activity of ERp5 and ERp57 to varying degrees
